Assay results from paper PMC4542281.

Sequences of proteins named here, by UniProt entry; tags and fusion partners are left off. A change or cut given only in a name is not applied to a line headed by its entry.
UniProt Q9VGQ8: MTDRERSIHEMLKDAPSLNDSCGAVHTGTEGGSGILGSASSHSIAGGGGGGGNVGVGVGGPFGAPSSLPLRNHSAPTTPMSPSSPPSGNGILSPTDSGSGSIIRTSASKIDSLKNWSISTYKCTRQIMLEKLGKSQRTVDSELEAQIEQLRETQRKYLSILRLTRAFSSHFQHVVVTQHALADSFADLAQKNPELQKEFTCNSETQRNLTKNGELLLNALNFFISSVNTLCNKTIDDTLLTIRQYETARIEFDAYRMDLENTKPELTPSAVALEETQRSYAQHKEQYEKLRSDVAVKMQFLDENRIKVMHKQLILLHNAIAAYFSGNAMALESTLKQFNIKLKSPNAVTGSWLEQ

Columns and labels:
[1] = molecular target: T1, HA-tagged Drosophila Arf-like 1 (Arl1) (Drosophila) (UniProt P25160); assay: co-IP; lysate of S2 cells co-expressing FLAG-Arfip and Arl1-HA incubated with anti-HA antibody-coated beads; IP buffer 50 mM Tris (7.4), 50 mM NaCl, 1% TX-100, 1 mM MgCl2, protease inhibitors; immunoblot
T1 sequence: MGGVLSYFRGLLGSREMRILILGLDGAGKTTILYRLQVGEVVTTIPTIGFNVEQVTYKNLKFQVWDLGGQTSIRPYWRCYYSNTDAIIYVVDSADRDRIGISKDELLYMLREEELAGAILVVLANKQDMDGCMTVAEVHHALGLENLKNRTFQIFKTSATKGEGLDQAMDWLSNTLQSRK

[2] = molecular target: FLAG-tagged Drosophila Arfaptin (Arfip) (Drosophila) (UniProt Q9VGQ8); assay: co-IP; lysate of S2 cells co-expressing FLAG-Arfip and Arl1-HA incubated with anti-FLAG antibody-coated beads; IP buffer 50 mM Tris (7.4), 50 mM NaCl, 1% TX-100, 1 mM MgCl2, protease inhibitors; immunoblot

binding [1]: binds
Molecule: FLAG-tagged Drosophila Arfaptin (Arfip) (from UniProt Q9VGQ8)

binding [2]: binds
B1: HA-tagged Drosophila Arf-like 1 (Arl1) (protein, UniProt P25160 1-180)
chain: T1 sequence

No constants are given. Whether binding was seen depends on the method and setting. Binding seen in cells or lysates may run through a third protein. Binding calls can cover weak binding; strength is not graded here. Tags and fused reporters may be left off the sequences shown. Each block holds one molecule with its values, some of them ahead of it.
